# Values of other authors as cited in patent publication US10352936B2, “Use of tumor Fas expression to determine response to anti-cancer therapy” (ApopLogic Pharmaceuticals, Inc., priority 2011, dated 2019).
# Some of these results come from one statement about several compounds together.
# Tested on: osteosarcoma
# Conditions: dogs, chemotherapy following amputation; amputation alone median 3-4 months; cited from earlier work
compound,measurement,value
COc1cccc2c1C(=O)c1c(O)c3c(c(O)c1C2=O)C[C@@](O)(C(=O)CO)C[C@@H]3O[C@H]1C[C@H](N)[C@H](O)[C@H](C)O1 [doxorubicin],mean survival time,9-11 months
